Results are given in words; binding and its absence hold for the method and conditions named. In cells and extracts the contact can be indirect. Some binding calls cover weakened binding; strength is not graded here.
Legend:
[1] = molecular target: protein arginine methyltransferase 1 (PRMT1), endogenous (human (endogenous in LIU-LSC-1)) (UniProt Q99873); experiment: co-IP; endogenous proteins in LIU-LSC-1 lysate; PRMT1, SMARCC1 or IgG antibodies on protein G beads, overnight at 4 °C, three washes, immunoblot; also in cells transfected for 48 h with siRNA against SMARCA4, BRD7, SMARCD3, SMARCE1 or siNC
[2] = molecular target: SWI/SNF related, matrix associated, actin dependent regulator of chromatin subfamily C member 1 (SMARCC1), endogenous (human (endogenous in LIU-LSC-1)) (UniProt Q92922); experiment: as above

Protein sequences, listed by entry. Tags and fused reporters are not part of them.
UniProt Q99873: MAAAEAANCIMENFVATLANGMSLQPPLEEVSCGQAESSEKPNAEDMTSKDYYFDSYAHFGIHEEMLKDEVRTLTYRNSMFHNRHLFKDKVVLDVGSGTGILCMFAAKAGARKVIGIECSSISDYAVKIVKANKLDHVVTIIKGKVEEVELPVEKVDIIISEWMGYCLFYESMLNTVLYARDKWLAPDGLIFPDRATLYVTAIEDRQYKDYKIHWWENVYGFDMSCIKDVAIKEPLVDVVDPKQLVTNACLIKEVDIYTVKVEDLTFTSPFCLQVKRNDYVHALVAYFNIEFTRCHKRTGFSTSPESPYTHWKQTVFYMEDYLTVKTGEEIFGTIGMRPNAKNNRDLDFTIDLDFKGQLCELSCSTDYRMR
UniProt Q92922: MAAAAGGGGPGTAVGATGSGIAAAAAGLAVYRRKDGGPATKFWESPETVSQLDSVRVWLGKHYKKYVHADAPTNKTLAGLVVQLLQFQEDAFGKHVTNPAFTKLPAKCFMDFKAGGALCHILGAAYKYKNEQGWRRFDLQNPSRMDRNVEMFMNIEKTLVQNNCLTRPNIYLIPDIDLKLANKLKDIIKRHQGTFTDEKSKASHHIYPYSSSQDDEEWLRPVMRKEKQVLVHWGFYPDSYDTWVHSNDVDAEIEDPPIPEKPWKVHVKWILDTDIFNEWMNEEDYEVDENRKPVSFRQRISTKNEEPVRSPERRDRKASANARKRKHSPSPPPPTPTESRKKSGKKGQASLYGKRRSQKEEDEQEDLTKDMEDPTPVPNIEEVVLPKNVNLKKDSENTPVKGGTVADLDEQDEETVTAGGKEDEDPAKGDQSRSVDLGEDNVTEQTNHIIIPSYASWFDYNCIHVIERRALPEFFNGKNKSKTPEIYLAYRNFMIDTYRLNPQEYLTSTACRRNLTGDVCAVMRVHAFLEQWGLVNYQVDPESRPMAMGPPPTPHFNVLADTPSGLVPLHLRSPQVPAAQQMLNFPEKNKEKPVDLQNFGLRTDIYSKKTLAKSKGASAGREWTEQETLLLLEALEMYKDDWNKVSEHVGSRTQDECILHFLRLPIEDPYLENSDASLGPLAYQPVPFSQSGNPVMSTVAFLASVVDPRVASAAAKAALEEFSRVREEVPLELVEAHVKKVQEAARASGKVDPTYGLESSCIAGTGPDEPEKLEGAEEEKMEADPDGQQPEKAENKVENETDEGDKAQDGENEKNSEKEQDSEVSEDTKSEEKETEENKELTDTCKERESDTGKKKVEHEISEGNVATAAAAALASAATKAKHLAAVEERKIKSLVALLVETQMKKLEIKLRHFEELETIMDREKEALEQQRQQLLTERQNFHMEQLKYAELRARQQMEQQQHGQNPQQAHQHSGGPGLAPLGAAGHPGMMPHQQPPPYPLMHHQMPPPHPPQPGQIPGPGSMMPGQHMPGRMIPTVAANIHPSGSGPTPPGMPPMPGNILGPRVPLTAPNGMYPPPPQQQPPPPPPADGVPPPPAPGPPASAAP

SWI/SNF related, matrix associated, actin dependent regulator of chromatin subfamily C member 1 (SMARCC1), endogenous (from UniProt Q92922 1-1105)
binding [1]: binds

protein arginine methyltransferase 1 (PRMT1), endogenous (from UniProt Q99873 1-371)
binding [2]: binds

From PMC12165065
